# Experimental data from the supplement of paper PMC8728848.
# This is one part of the list.
# Legend:
# Assay in all cases: glycan array binding signal (z-score within array); higher = stronger binding
# Settings in all cases: glycan notation: IUPAC condensed, linker removed
# [1] = target: Fuc(a1-3)GlcNAc
# How it was run: (§1)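 The binding signal is a Z-score computed within each array. Data were drawn from 3228 arrays in the Consortium for Functional Glycomics database, restricted to those with a known protein sequence. Scores were averaged over arrays of the same protein sequence at different concentrations or buffers, and over linkers, and negative values can be taken as non-binding.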
# [2] = target: Fuc(a1-3)[Gal(b1-4)]Glc6S
# How it was run: as §1
# [3] = target: Fuc(a1-3)[Gal(b1-4)]GlcNAc
# How it was run: as §1
# [4] = target: Fuc(a1-3)[Gal(b1-4)]GlcNAc(b1-2)Man
# How it was run: as §1
# [5] = target: Fuc(a1-3)[Gal(b1-4)]GlcNAc(b1-2)Man(a1-3)[Fuc(a1-3)[Gal(b1-4)]GlcNAc(b1-2)Man(a1-6)]Man(b1-4)GlcNAc(b1-4)GlcNAc
# How it was run: as §1
# [6] = target: Fuc(a1-3)[Gal(b1-4)]GlcNAc(b1-2)Man(a1-3)[Fuc(a1-3)[Gal(b1-4)]GlcNAc(b1-2)Man(a1-6)]Man(b1-4)GlcNAc(b1-4)[Fuc(a1-6)]GlcNAc
# How it was run: as §1
# [7] = target: Fuc(a1-3)[Gal(b1-4)]GlcNAc(b1-3)Gal(b1-3)[Fuc(a1-4)]GlcNAc
# How it was run: as §1
# [8] = target: Fuc(a1-3)[Gal(b1-4)]GlcNAc(b1-3)Gal(b1-4)[Fuc(a1-3)]GlcNAc
# How it was run: as §1
# [9] = target: Fuc(a1-3)[Gal(b1-4)]GlcNAc(b1-3)Gal(b1-4)[Fuc(a1-3)]GlcNAc(b1-3)Gal(b1-4)[Fuc(a1-3)]GlcNAc
# How it was run: as §1
# [10] = target: Fuc(a1-3)[Gal(b1-4)]GlcNAc(b1-3)GalNAc
# How it was run: as §1
# [11] = target: Fuc(a1-3)[Gal(b1-4)]GlcNAc(b1-6)GalNAc
# How it was run: as §1
# [12] = target: Fuc(a1-3)[Gal(b1-4)]GlcNAc(b1-6)[Gal(b1-3)GlcNAc(b1-3)]Gal(b1-4)Glc
# How it was run: as §1
# [13] = target: Fuc(a1-3)[Gal(b1-4)]GlcNAc6S
# How it was run: as §1
# [14] = target: Fuc(a1-3)[Gal3S(b1-4)]Glc
# How it was run: as §1
# [15] = target: Fuc(a1-3)[Gal3S(b1-4)]GlcNAc
# How it was run: as §1
# [16] = target: Fuc(a1-3)[Gal3S(b1-4)]GlcNAc6S
# How it was run: as §1
# [17] = target: Fuc(a1-3)[GalNAc(b1-4)]GlcNAc
# How it was run: as §1
# [18] = target: Fuc(a1-3)[GalNAc(b1-4)]GlcNAc6S
# How it was run: as §1
# [19] = target: Fuc(a1-4)GlcNAc
# How it was run: as §1
# [20] = target: Fuc(b1-3)GlcNAc
# How it was run: as §1
# [21] = target: Gal(a1-2)Gal
# How it was run: as §1
# [22] = target: Gal(a1-3)Gal
# How it was run: as §1
# [23] = target: Gal(a1-3)Gal(b1-3)GlcNAc
# How it was run: as §1
# [24] = target: Gal(a1-3)Gal(b1-3)GlcNAc(b1-2)Man
# How it was run: as §1
# [25] = target: Gal(a1-3)Gal(b1-3)GlcNAc(b1-2)Man(a1-3)[Gal(a1-3)Gal(b1-3)GlcNAc(b1-2)Man(a1-6)]Man(b1-4)GlcNAc(b1-4)GlcNAc
# How it was run: as §1
# [26] = target: Gal(a1-3)Gal(b1-3)GlcNAc(b1-3)GalNAc
# How it was run: as §1
# [27] = target: Gal(a1-3)Gal(b1-3)GlcNAc(b1-6)GalNAc
# How it was run: as §1
# [28] = target: Gal(a1-3)Gal(b1-3)[Fuc(a1-4)]GlcNAc(b1-2)Man(a1-3)[Gal(a1-3)Gal(b1-3)[Fuc(a1-4)]GlcNAc(b1-2)Man(a1-6)]Man(b1-4)GlcNAc(b1-4)GlcNAc
# How it was run: as §1
# [29] = target: Gal(a1-3)Gal(b1-4)Glc
# How it was run: as §1
# [30] = target: Gal(a1-3)Gal(b1-4)GlcNAc
# How it was run: as §1
binder,measurement,setting,value
FimA (Actinomyces oris) (protein) MHHHHHHSSGVDLGTENLYFQSNAETPNYGNIKTDATGSLVIHKHLTGGGKDIGTPTGTAQNADDKGPAVEGVVFTAYPITDINLKDPAGWDTISNLSRTGVPDSACANPAAPTLGAHQFGTPKVSPATTKEGLATITEMPVQAYLVCETTTPGDIVQKAKPFVVTIPHPNTAAGADGQWIYDVNVYPKNEAIDVDKTIQAQKLNGYGVGSLIKFPVESTAPTLDAKSFYKYFQLKDTLDERLSEVTATDVSLEGTPLQPTDYKVETKQQTVTVTFTAEGLKKIKAAPGKKVSAVFQGKVTKAGNGAITNRAQVISDTLYAEQPPTPETPPTDPENPPTSDEVISRWGDLSIKKVDTHQQGQTKAGLQGAQFQLYKAKNAYANTCSNEKEGAPIAINGQTTLTTDAQGAIDIKGLFISDSIDGADRDNQVNAMERCYVLVETKAPAGYVLPAGNGAATPVKVKAGEETTDNVTVENTKQSVPGLPLTG,glycan array binding signal (z-score),[1],-1.01
same,glycan array binding signal (z-score),[2],1.02
same,glycan array binding signal (z-score),[3],-0.412
same,glycan array binding signal (z-score),[4],-0.211
same,glycan array binding signal (z-score),[5],-0.371
same,glycan array binding signal (z-score),[6],-0.345
same,glycan array binding signal (z-score),[7],-0.38
same,glycan array binding signal (z-score),[8],0.299
same,glycan array binding signal (z-score),[9],1.47
same,glycan array binding signal (z-score),[10],-0.195
same,glycan array binding signal (z-score),[11],-0.64
same,glycan array binding signal (z-score),[12],-0.539
same,glycan array binding signal (z-score),[13],0.324
same,glycan array binding signal (z-score),[14],-0.294
same,glycan array binding signal (z-score),[15],-0.551
same,glycan array binding signal (z-score),[16],-0.482
same,glycan array binding signal (z-score),[17],3.5
same,glycan array binding signal (z-score),[18],-0.45
same,glycan array binding signal (z-score),[19],0.328
same,glycan array binding signal (z-score),[20],0.27
same,glycan array binding signal (z-score),[21],-0.12
same,glycan array binding signal (z-score),[22],-0.183
same,glycan array binding signal (z-score),[23],-0.412
same,glycan array binding signal (z-score),[24],0.196
same,glycan array binding signal (z-score),[25],1.41
same,glycan array binding signal (z-score),[26],-0.651
same,glycan array binding signal (z-score),[27],-0.364
same,glycan array binding signal (z-score),[28],0.422
same,glycan array binding signal (z-score),[29],-0.298
same,glycan array binding signal (z-score),[30],-0.971

# 7 entries from above, as tab-separated lines:
binder	measurement	setting	value
FimA (Actinomyces oris) (protein) MHHHHHHSSGVDLGTENLYFQSNAETPNYGNIKTDATGSLVIHKHLTGGGKDIGTPTGTAQNADDKGPAVEGVVFTAYPITDINLKDPAGWDTISNLSRTGVPDSACANPAAPTLGAHQFGTPKVSPATTKEGLATITEMPVQAYLVCETTTPGDIVQKAKPFVVTIPHPNTAAGADGQWIYDVNVYPKNEAIDVDKTIQAQKLNGYGVGSLIKFPVESTAPTLDAKSFYKYFQLKDTLDERLSEVTATDVSLEGTPLQPTDYKVETKQQTVTVTFTAEGLKKIKAAPGKKVSAVFQGKVTKAGNGAITNRAQVISDTLYAEQPPTPETPPTDPENPPTSDEVISRWGDLSIKKVDTHQQGQTKAGLQGAQFQLYKAKNAYANTCSNEKEGAPIAINGQTTLTTDAQGAIDIKGLFISDSIDGADRDNQVNAMERCYVLVETKAPAGYVLPAGNGAATPVKVKAGEETTDNVTVENTKQSVPGLPLTG	glycan array binding signal (z-score)	[12]	-0.539
same	glycan array binding signal (z-score)	[13]	0.324
same	glycan array binding signal (z-score)	[14]	-0.294
same	glycan array binding signal (z-score)	[15]	-0.551
same	glycan array binding signal (z-score)	[16]	-0.482
same	glycan array binding signal (z-score)	[17]	3.5
same	glycan array binding signal (z-score)	[18]	-0.45
